Laboratory results: paper PMC7000686
No constants are given. Whether binding was seen depends on the method and setting. In cells and extracts the contact can be indirect. Some binding calls cover weakened binding; strength is not graded here.

Amino acid sequences for entries named in this document (tags omitted). A change or cut given only in a name is not applied to a line headed by its entry. Chains listed by the source or under a name are the forms on record and can include a tag or linker.
KIT K642E mutant oncoprotein (GIST882 cells) (human (endogenous in GIST882)) (P10721, form named): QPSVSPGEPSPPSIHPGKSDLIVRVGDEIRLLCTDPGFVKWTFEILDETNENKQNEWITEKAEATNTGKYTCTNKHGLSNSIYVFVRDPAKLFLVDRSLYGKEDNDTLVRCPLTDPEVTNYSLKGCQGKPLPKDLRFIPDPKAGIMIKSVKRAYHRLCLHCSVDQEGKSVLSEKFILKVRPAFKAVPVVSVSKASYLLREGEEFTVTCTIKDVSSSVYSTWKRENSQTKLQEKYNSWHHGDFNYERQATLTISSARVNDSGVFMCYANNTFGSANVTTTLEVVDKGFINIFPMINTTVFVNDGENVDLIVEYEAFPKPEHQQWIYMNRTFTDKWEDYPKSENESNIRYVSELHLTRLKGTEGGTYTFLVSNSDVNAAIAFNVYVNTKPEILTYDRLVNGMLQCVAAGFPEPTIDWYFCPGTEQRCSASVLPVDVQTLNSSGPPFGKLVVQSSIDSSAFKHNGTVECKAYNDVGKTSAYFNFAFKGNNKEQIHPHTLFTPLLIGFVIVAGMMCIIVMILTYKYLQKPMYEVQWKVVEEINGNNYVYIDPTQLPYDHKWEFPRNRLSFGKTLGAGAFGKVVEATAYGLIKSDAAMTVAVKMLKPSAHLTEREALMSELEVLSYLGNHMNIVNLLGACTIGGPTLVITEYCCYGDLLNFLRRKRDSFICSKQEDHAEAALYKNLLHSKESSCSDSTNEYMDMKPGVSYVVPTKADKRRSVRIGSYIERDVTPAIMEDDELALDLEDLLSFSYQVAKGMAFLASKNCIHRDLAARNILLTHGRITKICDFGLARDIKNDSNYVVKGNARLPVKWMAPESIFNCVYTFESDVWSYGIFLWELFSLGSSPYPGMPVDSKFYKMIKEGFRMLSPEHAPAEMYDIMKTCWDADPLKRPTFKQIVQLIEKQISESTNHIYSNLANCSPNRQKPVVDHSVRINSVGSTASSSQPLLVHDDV

T1: CDC37 (cell division cycle 37) (human (endogenous in GIST882 and GIST430/654)) (UniProt Q16543)
T1 sequence: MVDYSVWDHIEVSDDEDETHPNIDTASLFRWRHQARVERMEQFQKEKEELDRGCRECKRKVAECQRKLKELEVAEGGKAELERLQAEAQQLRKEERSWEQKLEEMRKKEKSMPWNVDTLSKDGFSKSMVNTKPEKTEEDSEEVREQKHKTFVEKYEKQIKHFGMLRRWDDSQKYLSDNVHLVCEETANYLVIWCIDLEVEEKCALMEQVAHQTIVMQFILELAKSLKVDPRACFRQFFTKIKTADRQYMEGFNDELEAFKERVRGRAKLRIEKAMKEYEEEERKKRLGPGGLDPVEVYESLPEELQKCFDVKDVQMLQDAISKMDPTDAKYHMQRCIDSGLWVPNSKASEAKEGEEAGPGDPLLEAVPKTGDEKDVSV


How the values were obtained:
[1] = target: T1, CDC37 (cell division cycle 37) (human (endogenous in GIST882 and GIST430/654)); test: co-IP; endogenous KIT or CDC37 precipitated with mouse monoclonal antibody and protein G beads from 1 mg lysate (1% NP-40 IP buffer, 4 °C) of GIST882 and GIST430/654 cells treated with DMSO for 6 h in serum-free medium; immunoblot for HSP90, KIT and CDC37
[2] = target: KIT K642E mutant oncoprotein (GIST882 cells) (human (endogenous in GIST882)) (UniProt P10721); test: as above

binding [1] | binding [2] | Molecule
binds |  | KIT K642E mutant oncoprotein (GIST882 cells) (from UniProt P10721 26-976) (receptor)
 | binds | CDC37 (cell division cycle 37) (protein, UniProt Q16543 1-378) MVDYSVWDHIEVSDDEDETHPNIDTASLFRWRHQARVERMEQFQKEKEELDRGCRECKRKVAECQRKLKELEVAEGGKAELERLQAEAQQLRKEERSWEQKLEEMRKKEKSMPWNVDTLSKDGFSKSMVNTKPEKTEEDSEEVREQKHKTFVEKYEKQIKHFGMLRRWDDSQKYLSDNVHLVCEETANYLVIWCIDLEVEEKCALMEQVAHQTIVMQFILELAKSLKVDPRACFRQFFTKIKTADRQYMEGFNDELEAFKERVRGRAKLRIEKAMKEYEEEERKKRLGPGGLDPVEVYESLPEELQKCFDVKDVQMLQDAISKMDPTDAKYHMQRCIDSGLWVPNSKASEAKEGEEAGPGDPLLEAVPKTGDEKDVSV
